Assay results as given in publication PMC10163288.
This is one part of the list.

B1: il2ra_site1_3nfp_sap_16_mot_HHH_b1_06381_000000036_0001_23_39_H_._HEEHE_0898_0001_0000100002_0000001_0_0001_af2pred_0001_af2pred_swapped (protein)
chain: SSSSSSDAEEEVRELLEEAKHIEDPEEARRVFEEARKIANRHNDKEAVRLIKEFVKRASSSSSSS
B2: il2ra_site1_3nfp_normal_mot_HHH_b1_03716_af2_000000072_0001_40_56_H_._HHH_b1_07927_af2_0001_0000100016_0000001_0_af2pred_0001_af2pred_swapped (protein)
chain: SSSSSDEEVEELLKELEELIKEGNSREAEELAKEISKIILELGDEELNRELLRLLREAVSSSSSS
B3: il2ra_site1_1z92_normal_mot_7f39e2d7389de0c2f60e905c27398b6a_0001_1_000000104_0001_37_51_H_._ed672b822448df934975055ed07e5099_0001_1_af2_0001_0000200011_0000001 … (protein)
chain: DEEIERLLREILEEALGDPEVAERLLELIRKHAGGDPEKVARVVARLLRAAGDPEATKKVEELLK
B4: il2ra_site2_2erj_sap_35_mot_3b06bd03f1c6bceadc68eab912867b79_0001_000000296_0001_36_50_H_._15f70e71ac3214bf43105af5abf4654e_0001_1_af2_0001_0000300007_0000001_0 … (protein)
chain: SSSSDEELRRLYELAVRLMRLLAEGDEEQLEKLLEEAREIAERLQSPNAEEVIEFLERRGSSSSS
B5: il2ra_site2_3nfp_normal_mot_9d078286af883dfa287c94d9dd69cdb5_0001_af2_000000122_0001_35_49_H_._HHH_b1_02480_af2_0001_0000400010_0000001_0 (protein)
chain: SSSSNEYAEFAAESARLQLERLGDEETLEELEKLLEEVKREGDPEAQIRLYELLRRIADERSSSS
B6: il2ra_site1_3nfp_sap_10_mot_HHH_b2_00770_af2_000000063_0001_1_19_H_._HHH_b2_07788_0001_0000400012_0000001_0_0001 (protein)
chain: NEEARRLAEAIARGDPRVEELIEELVEELKRKGDPDLRHALKALARMARSFGNPELAEELERLLK
B7: il2ra_site1_2b5i_normal_mot_d4f58537f9d5e1f361f6ea2252377c33_0001_1_000000167_0001_1_13_H_._HHH_b1_04228_0001_0000300038_0000001_0 (protein)
chain: SSSSSNERILEYAQRHLEEAERAGDERAIRRWAEMLLRQAKEVGDEEVAEYARRLLEEVSSSSSS
B8: il2ra_site1_1z92_sap_17_mot_HHH_b1_04261_000000113_0001_39_52_H_._038fe1aee5932669f1ddd6e60ea7a8eb_0001_0001_0000100010_0000001_0_0001_af2pred_0001_af2pred (protein)
chain: SSSSSSEDFERIQELFEEATRIPDPEEAREVLEEALELAERLGDERIAEEIRQFLEMAGSSSSSS
B9: il2ra_site2_2erj_normal_mot_HHH_b1_00071_af2_000000225_0001_40_56_H_._HHH_b2_01689_0001_0000800027_0000001_0 (protein)
chain: SSSSDAIEEAIEAVAEATELLAHASEEELEELLERLEKLVRELNDETTLRFVELLEKDALSSSSS
B10: il2ra_site2_2erj_normal_mot_8a316d4779eb53efc793250774d75e68_0001_af2_000000043_0001_18_32_H_._HHH_b1_05331_0001_0000500005_0000001_0_af2pred_0001_1_af2pred_swa … (protein)
chain: SSSSDEEEKLKELLEIVERLLKEGDPERAILRVIEAILLAQEANDEEIAEELHKLLQESRSSSSS
B11: il2ra_site1_2b5i_normal_mot_22370d59370c406a0c205a431f537cfa_0001_af2_000000141_0001_1_31_H_._HHH_b2_03163_af2_0001_0000300029_0000001_0_af2pred_0001_af2pred (protein)
chain: SSSDHELVRFAVRVVLRLARELGLSREQIKRLHEIAVRLVDNGFSEEEIEEILREEAEELKSSSS
B12: il2ra_site1_3nfp_normal_mot_HHH_b1_02781_000000044_0001_39_52_H_._HHH_b2_02059_0001_0000100002_0000001_0_af2pred_0001_af2pred (protein)
chain: SSSSSSEEEEERVRELLERARKIEDWREAEELFEEALKIAARLKDPELLRLVLEFAREYSSSSSS
B13: il2ra_site1_3nfp_sap_12_mot_HHH_b1_07180_af2_000000260_0001_1_19_H_._HHH_b2_08228_0001_0000700033_0000001_0_0001 (protein)
chain: DAVERFIKKAEELDPRFKELLEELLELAHEHPQDDELAHALLHVVALIDNGNPEEAEKAAEEILK
B14: il2ra_site1_3nfp_normal_mot_0eddeacbb14b769e73e254714f31e2f9_0001_af2_000000052_0001_37_51_H_._HHH_b2_00297_af2_0001_0000100007_0000001_0 (protein)
chain: SSSSNEEADRLYELMKELIELAKEGNEEEAKEVAEELLKLAEERNDPNVEKAARLLLELLSSSSS
B15: il2ra_site2_2erj_normal_mot_HHH_b1_03990_af2_000000075_0001_19_35_H_._ems_p1-16H-GBL-16H-GABBL-16H_0048_0001_0001_0001_0001_0000100002_0000001_0_af2pred_0001_1_ … (protein)
chain: SSSSDEVVRLAARVSLIAREKGDEEAFLKASEILARFLKGILSEEEASKLLEELLKEAESSSSSS
B16: il2ra_site1_3nfp_sap_17_mot_86920ccf215a9397388743310839e631_0001_1_000000296_0001_18_34_H_._HHH_b1_08366_0001_0000400016_0000001_0_0001 (protein)
chain: SSSSDELERVVEELVKELGLTRVAKRALEEAVEMLKKMGISEEEAERALEDAARMFARIQSSSSS
B17: il2ra_site2_2erj_sap_21_mot_2e60acbd11533cd3bad2fa8ba2aa37e0_0001_af2_000000288_0001_35_49_H_._HHH_b1_03230_0001_0000300009_0000001_0_0001 (protein)
chain: SSSSSEEVEELIEQVEELLKKGDVEEAERVLRRAAHIAFEDGDEELFSKLAELTRAVAHAESSSS
B18: il2ra_site2_3nfp_sap_14_mot_HHH_b1_00660_af2_000000090_0001_40_57_H_._HHH_b2_00227_0001_0000400023_0000001_0_0001 (protein)
chain: SSSSDDAEEYIRAALALVELALEEGDPEIARKILEMARMAAEDNNNEELEEEVERLEELLSSSSS
B19: il2ra_site2_3nfp_normal_mot_HHH_b2_06150_000000217_0001_39_53_H_._HHH_b2_03460_af2_0001_0001000032_0000001_0 (protein)
chain: SSSSDVEERVRELLEEAEELFKEGDEEEAREILAEATRLAYEARDSELFFEVAEVLYRLASSSSS

The binders below were run against il2ra, P01589 (assay: yeast display titration).

Apparent Kd, inactive:
B1 no binding seen
B2 no binding seen
B3 no binding seen
B4 no binding seen
B5 no binding seen
B6 no binding seen
B7 no binding seen
B8 no binding seen
B9 no binding seen
B10 no binding seen
B11 no binding seen
B12 no binding seen
B13 no binding seen
B14 no binding seen
B15 no binding seen
B16 no binding seen
B17 no binding seen
B18 no binding seen
B19 no binding seen

Pulled one by one from the list above, 2 records:
Apparent Kd, inactive:
B7 no binding seen
B10 no binding seen
